For one substance, binding results are on record in publication PMC4707540.

By UniProt entry, the sequences of proteins in these tests, tags left out.
UniProt P40337: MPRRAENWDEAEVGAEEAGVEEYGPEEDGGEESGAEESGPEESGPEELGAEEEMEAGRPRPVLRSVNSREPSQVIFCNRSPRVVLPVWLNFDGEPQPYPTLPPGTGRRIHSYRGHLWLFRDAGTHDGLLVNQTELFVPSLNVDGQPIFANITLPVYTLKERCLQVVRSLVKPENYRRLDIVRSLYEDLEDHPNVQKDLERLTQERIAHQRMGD

Results are given in words; binding and its absence hold for the method and conditions named. Binding seen in cells or lysates may run through a third protein. For some assays here: Binding calls can cover weak binding; strength is not graded here.

Assay [1] addresses TDP-43-FLAG devoid of RRM2 (ΔRRM2) (human) (UniProt Q13148). The assay can be described thus: co-IP; lysates of HEK293A cells co-transfected with a FLAG-tagged protein (TDP-43 or SOD1 forms) and HA-VHL, 48 h after transfection; anti-FLAG M2 affinity gel at 4 °C overnight, blotted with anti-HA; co-IP buffer (20 mM HEPES pH 7.4, 125 mM NaCl, 2 mM EDTA, 1% Triton X-100, 10% glycerol); in some panels cells treated with lactacystin (10 μM, 8 h) and/or paraquat (0.4 mM, 8 h).

Assay [2] addresses TDP-43-FLAG devoid of RRM1 (ΔRRM1) (human) (UniProt Q13148). The assay is described as above.

With “human VHL tagged with HA (HA-VHL) (from UniProt P40337 1-213)”, the binding result is given as “no binding” in assay [1] and “binds” in assay [2].
